PubChem BioAssay AID1259405, NCATS, 2018

Assay: 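Knock-downs that lift recombinant protein yield in hamster ovary cells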 (primary screen)
Cell system: Chinese hamster CHO-K1 ovary cells with stable secreted eGFP expression
Reagent: single siRNA against mouse genes, 0.8 pmol siRNA per well (2 µl of 400 nM stock)
Duration: 3 days
Read-out: 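Per-well intracellular GFP measured by laser scanning cytometry, plus viability from ATP luminescence, each relative to plate median of non-targeting control wells, in %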
Scale: GFP, % of control: higher = more GFP per well, higher productivity
Rule for the call: 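a knock-down is called active if GFP reaches 120% or more of non-targeting control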
Here is a random part of about 50,000 reagents tested. About 4,000 of all reagents (8%) were called active. 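Mouse siRNA library applied to hamster cells; one well for each siRNA.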 Entries without a mark were called inactive. Reagents against one gene are numbered here. Not all columns of the deposit are shown. Reagent sequences are not shown.

GFP, % of control, by target and reagent
Cyp2j9 (GeneID 74519): #1 80.1; #2 61.9; #3 77.1
Adamts19 (GeneID 240322): #1 81.6; #2 200 (active); #3 88.1
Pard6b (GeneID 58220): #1 87; #2 86.8; #3 109
Rhbdl3 (GeneID 246104): #1 127 (active); #2 62.5; #3 70.7
Ptk2 (GeneID 14083): #1 48.4
Arhgap24 (GeneID 231532): #1 49.3; #2 73.1; #3 72.8
Plppr5 (GeneID 75769): #1 97.4; #2 105; #3 91.2
Mettl22 (GeneID 239706): #1 113; #2 56.2; #3 96.4
Slc12a3 (GeneID 20497): #1 105; #2 66.9; #3 97.3

3 entries already listed, sorted by “GFP, % of control”, low to high.
target	reagent no.	GFP, % of control
Slc12a3 (GeneID 20497)	2	66.9
Mettl22 (GeneID 239706)	3	96.4
Slc12a3 (GeneID 20497)	1	105

The listing continues.
GFP, % of control, by target and reagent
Krtap31-1 (GeneID 70831): #1 36.4; #2 84.5; #3 67.2
Ino80 (GeneID 68142): #1 67.6; #2 98.8; #3 76.5
Vmn1r80 (GeneID 171238): #1 64.8; #2 77.2; #3 57.4
Slc24a2 (GeneID 76376): #1 81.7; #2 76.6; #3 33.8
Gjc2 (GeneID 118454): #1 108; #2 126 (active); #3 59.2
Slc36a2 (GeneID 246049): #1 141 (active); #2 44.4; #3 100
Cstpp1 (GeneID 228356): #1 80.8; #2 41.7; #3 60.5
Pnpla8 (GeneID 67452): #1 73.3; #2 120 (active); #3 146 (active)
Dnase2a (GeneID 13423): #1 147 (active); #2 62.6; #3 79.1
B4galt4 (GeneID 56375): #1 106; #2 82.4; #3 72.9
Sp140l1 (GeneID 381287): #1 75.3; #2 71; #3 44.2
